US12168673B2 (Mitopower, Inc., priority 2022, dated 2024)

Assays:
[1] = Human plasma protein binding (RED dialysis); conditions: human, plasma, 10 μM, 5 hours dialysis
Protocol: (§1) The test compounds were weighed and prepared as 10 mM stocks in 100% DMSO. 10 μM is the final test concentration for all compounds.
(§2) The samples were prepared by spiking test compound(s) in plasma at 10 μM final concentration. 200 μL of plasma containing the test compound was added into the donor well (RED Chamber) of the insert. Simultaneously 350 μL of dialysis buffer (1×PBS) was added into the receiver well (white chamber). Two measurements were made for each test compound. The plate was covered with a sealer and incubated at 37° C. degrees on an orbital shaker at 500 rpm for 5 hours.
(§3) After incubation, 25 μl of plasma (RED chamber) and 25 μl of buffer (white chamber) samples were separately collected into separate centrifugation tubes. Plasma and buffer samples were precipitated with 200 μL of 100% acetonitrile containing internal standards. 25 μl of T0 (T Zero) plasma samples (samples before 5 hours incubation) were collected (To samples were processed immediately after the preparation of plasma working stock solution. These samples serve as a measure for calculating the percentage recovery of the test compound and precipitated using 100% acetonitrile containing internal standards). The samples were vortexed at 1000 rpm for 5 min and centrifuged at 4000 rpm for 10 min. The supernatant was diluted 2-fold with water and injected into LC-MS/MS.
(§4) The % of Plasma bound/unbound fraction was calculated by the following equation: % Unbound or % free=100*(Fc/Tc); % Recovery=100 (Fc+Tc)/[…] where Tc=Total compound concentration as determined by the calculated concentration on the plasma side of the membrane (concentration in plasma chamber), Fc=Free compound concentration as determined by the calculated concentration on the buffer side of the membrane (concentration in buffer chamber) and T0=Total compound concentration as determined before dialysis.

[2] = system: Human Plasma Protein; test: Human plasma protein binding (RED dialysis)
Protocol: as §1, §2, §3, §4

[3] = Caco-2 permeability assay; conditions: human
Source text: The endpoint measured is the intestinal permeability expressed as apparent permeability—Papp value. All permeability values are represented as ×10^−6 cm/sec.

SMILES | fraction unbound at 5 h, 10 μM ([1]; % Bound in plasma) | fraction unbound at 5 h, 10 μM ([1]; % Unbound in plasma) | fraction unbound at 5 h, 10 μM ([1]; Fraction unbound) | Remarks (binding class) [2] | Papp A→B [3] [×10⁻⁶ cm/s] | Papp B→A [3] [×10⁻⁶ cm/s] | efflux ratio [3] | recovery ([3]; Caco-2, % Recovery A to B) [%] | recovery ([3]; Caco-2, % Recovery B to A) [%]
CC(C)NCC(O)COc1ccc(CC(N)=O)cc1 (stereo not drawn) [Atenolol] | 0.835 | 0.835 | 0.84 | Low binding | – | – | – | – | –
NS(=O)(=O)c1cc(C(=O)O)c(NCc2ccco2)cc1Cl [Furosemide, reference compound] | – | – | – | – | 0.2 | 11.7 | 73.7 | 72.2 | 73.9
